Source: WO2005095457A2 (dated 2005)

Key:
[1] = target: human Oncostatin M (hOSM) (human); test: gp130 inhibition ELISA, human OSM
[2] = target: Human recombinant OSM (R&D Systems, non-glycosylated) (human); test: gp130-OSM ELISA
[3] = target: human Oncostatin M (hOSM) (human); test: gp130 inhibition ELISA and KB cell assay
[4] = target: human Oncostatin M (hOSM) (human); test: gp130 inhibition ELISA
[5] = target: human Oncostatin M (hOSM) (human); test: gp130 inhibition ELISA, purified antibodies
[6] = target: human Oncostatin M (hOSM) (human); test: gp130 inhibition ELISA, CHO supernatant
[7] = target: human Oncostatin M (hOSM) (human); test: gp130 ELISA

B1: 15E10 murine antibody (antibody, mouse IgG2a, V domains shown)
VH: QVQLKQSGPGLVQPSQSLSITCTVSGFSLTNYGVHWVRQSPGKGLEWLGVIWRGGSTDYNAAFMSRLSITKDNSRSQVFFKMNSLQADDTAIYYCAKSPNSNFYWYFDVWGTGTTVTVSS
VL: QIVLTQSPTIMSASPGEKVTMTCSGSSSVSYMYWYQEKPGSSPRLLIEDTSNLASGVPARFSGSGSGTSYSLTISRMEAEDAATYYCQQWSSYPPTFGSGTKLEIK
notes: also called clone 15E10; parent murine 15E10
In the case of B1, the binding [1] is reported as “binds” and the binding [2] is reported as “binds”.

B2: 15E10 chimaeric antibody (antibody, human IgG1, V domains shown)
VH: B1 VH
VL: B1 VL
notes: expressed in CHO; also called chimaeric 15E10; 15E10 chimaera
B2 was tested, and the binding [3] was “binds” and the binding [4] was “binds”.

B3: humanised 15E10 antibody B4L2 (antibody, V domains shown)
VH: QVQLVESGGGVVQPGRSLRLSCAASGFSLTNYGVHWVRQAPGKGLEWVAVIWRGGSTDYNAAFMSRLTISKDNSKNTLYLQMNSLRAEDTAVYYCAKSPNSNFYWYFDVWGRGTLVTVSS
VL: EIVLTQSPATLSLSPGERATLSCSGSSSVSYMYWYQQKPGQAPRLLIEDTSNLASGIPARFSGSGSGTDYTLTISNLEPEDFAVYYCQQWSSYPPTFGQGTKLEIKR
In the case of B3, the binding [5] is reported as “binds” and the binding [6] is reported as “binds”.

B4: humanised 15E10 antibody B4L1 (antibody, V domains shown)
VH: B3 VH
VL: EIVLTQSPATLSLSPGERATLSCSGSSSVSYMYWYQQKPGQAPRLLIYDTSNLASGIPARFSGSGSGTDFTLTISNLEPEDFAVYYCQQWSSYPPTFGQGTKLEIK
For B4, the binding [6] was “binds”.

B5: 10D3 murine antibody (antibody, mouse IgG1, V domains shown)
VH: EVQLQQSGPELVKPGASVKISCKASGYIFTDYNMDWVKQSHGKKLEWIGDINPNNGGTIDNQKFKDKATLTVDKSSSTAYMELRSLTSEDTAVYYCARGIYYYGSHYFDYWGQGTTLTVSS
VL: QIVLTQSPAIMSASPGEKVTMTCSATSSVSVMHWFQKKSGTSPKRWIYDTSKLASGVPTRFSGSGSGTSYSLTISSMEAEDTATYYCQQWSSNPLTFGSGTKLELK
B5 was tested, and the binding [1] was “binds”.

B6: humanised 15E10 antibody B3L2 (antibody, human IgG1, kappa, V domains shown)
VH: B3 VH with L67F
VL: B3 VL
notes: Human IgG1 wild type / kappa; purified from CHO; also called B3L2 wt; 15E10-B3L2
For B6, the binding [5] was “binds” and the binding [4] was “binds”.

B7: humanised 15E10 antibody B2L2 (antibody, V domains shown)
VH: QVQLVESGGGVVQPGRSLRLSCAASGFSLTNYGVHWVRQAPGKGLEWVAVIWRGGSTDYNAAFMSRFTISRDNSKNTLYLQMNSLRAEDTAVYYCAKSPNSNFYWYFDVWGRGTLV
VL: B4 VL with Y48E, F70Y
B7 was tested, and the binding [5] was “binds”.

B8: 10D3 chimaeric antibody (antibody, human IgG1, V domains shown)
VH: B5 VH
VL: B5 VL
notes: expressed in CHO; also called chimaeric 10D3; chimeric 10D3
With B8 the binding [3] was “binds”, the binding [7] was “binds” and the binding [4] was “binds”.

Positions count from the first letter of the chain named. These are yes or no findings as the source states them, for the method shown. A result given as binding can be weak or reduced; the word gives no strength.
